This note sets out measurements from patent US7105647.

Amino acid sequences for entries named in this document (tags omitted). A change or cut given only in a name is not applied to a line headed by its entry.
UniProt P27540: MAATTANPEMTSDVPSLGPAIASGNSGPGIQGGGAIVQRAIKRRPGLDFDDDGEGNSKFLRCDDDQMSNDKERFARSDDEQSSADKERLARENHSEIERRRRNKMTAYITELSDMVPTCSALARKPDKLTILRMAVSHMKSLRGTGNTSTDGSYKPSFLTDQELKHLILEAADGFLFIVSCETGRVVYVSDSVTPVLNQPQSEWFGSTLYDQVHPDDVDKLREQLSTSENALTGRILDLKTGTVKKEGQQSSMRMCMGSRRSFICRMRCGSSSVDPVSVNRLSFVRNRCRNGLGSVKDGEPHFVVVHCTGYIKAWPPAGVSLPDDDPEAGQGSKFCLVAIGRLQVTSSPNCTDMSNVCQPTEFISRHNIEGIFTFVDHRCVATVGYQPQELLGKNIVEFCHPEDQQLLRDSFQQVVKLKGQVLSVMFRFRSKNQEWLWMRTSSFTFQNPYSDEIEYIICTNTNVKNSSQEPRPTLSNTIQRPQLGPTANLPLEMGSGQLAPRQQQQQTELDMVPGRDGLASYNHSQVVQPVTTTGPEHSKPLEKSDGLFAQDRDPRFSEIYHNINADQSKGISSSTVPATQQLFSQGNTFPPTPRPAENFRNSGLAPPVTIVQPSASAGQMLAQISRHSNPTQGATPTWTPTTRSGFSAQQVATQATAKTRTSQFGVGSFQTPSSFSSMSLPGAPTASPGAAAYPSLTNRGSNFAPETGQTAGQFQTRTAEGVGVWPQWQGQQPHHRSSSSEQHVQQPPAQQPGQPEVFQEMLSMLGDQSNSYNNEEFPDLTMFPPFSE
UniProt O00327: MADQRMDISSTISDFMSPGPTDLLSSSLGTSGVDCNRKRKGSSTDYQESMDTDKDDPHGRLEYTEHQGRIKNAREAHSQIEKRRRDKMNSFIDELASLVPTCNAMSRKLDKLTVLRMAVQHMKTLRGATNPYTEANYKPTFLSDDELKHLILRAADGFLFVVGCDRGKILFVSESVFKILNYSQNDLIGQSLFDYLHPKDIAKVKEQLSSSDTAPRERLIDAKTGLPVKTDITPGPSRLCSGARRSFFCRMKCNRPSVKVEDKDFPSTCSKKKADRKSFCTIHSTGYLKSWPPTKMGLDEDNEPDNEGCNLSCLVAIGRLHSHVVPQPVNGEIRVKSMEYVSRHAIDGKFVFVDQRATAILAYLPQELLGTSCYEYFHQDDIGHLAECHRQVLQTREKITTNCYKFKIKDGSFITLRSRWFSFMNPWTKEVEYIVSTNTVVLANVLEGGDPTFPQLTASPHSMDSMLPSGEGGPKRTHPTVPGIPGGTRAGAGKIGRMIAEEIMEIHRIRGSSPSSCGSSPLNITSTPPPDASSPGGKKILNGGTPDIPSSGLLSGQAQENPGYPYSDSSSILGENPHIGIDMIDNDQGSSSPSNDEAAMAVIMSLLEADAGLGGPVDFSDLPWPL
UniProt P35869: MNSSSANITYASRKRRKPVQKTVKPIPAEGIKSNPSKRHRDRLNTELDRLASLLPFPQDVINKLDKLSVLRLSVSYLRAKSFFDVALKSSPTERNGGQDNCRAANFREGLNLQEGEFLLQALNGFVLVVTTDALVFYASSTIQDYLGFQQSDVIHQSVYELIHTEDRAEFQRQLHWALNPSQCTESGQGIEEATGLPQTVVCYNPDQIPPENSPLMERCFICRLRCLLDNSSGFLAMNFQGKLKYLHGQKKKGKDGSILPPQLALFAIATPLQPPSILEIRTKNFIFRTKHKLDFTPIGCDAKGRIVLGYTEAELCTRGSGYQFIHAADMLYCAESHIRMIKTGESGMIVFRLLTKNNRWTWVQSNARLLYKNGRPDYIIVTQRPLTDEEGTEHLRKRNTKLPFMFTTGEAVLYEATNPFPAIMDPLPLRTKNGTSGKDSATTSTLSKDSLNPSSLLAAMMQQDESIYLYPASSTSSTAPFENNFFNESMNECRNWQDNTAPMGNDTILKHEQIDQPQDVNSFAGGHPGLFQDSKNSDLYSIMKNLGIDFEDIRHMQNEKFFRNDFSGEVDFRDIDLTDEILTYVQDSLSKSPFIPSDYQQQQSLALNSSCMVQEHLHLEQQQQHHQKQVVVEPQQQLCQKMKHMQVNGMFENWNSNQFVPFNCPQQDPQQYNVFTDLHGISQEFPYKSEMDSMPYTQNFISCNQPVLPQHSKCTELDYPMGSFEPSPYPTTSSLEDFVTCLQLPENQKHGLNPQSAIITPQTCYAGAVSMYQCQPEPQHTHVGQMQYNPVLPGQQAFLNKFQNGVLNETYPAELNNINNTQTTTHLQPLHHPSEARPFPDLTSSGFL
UniProt Q0VBL6: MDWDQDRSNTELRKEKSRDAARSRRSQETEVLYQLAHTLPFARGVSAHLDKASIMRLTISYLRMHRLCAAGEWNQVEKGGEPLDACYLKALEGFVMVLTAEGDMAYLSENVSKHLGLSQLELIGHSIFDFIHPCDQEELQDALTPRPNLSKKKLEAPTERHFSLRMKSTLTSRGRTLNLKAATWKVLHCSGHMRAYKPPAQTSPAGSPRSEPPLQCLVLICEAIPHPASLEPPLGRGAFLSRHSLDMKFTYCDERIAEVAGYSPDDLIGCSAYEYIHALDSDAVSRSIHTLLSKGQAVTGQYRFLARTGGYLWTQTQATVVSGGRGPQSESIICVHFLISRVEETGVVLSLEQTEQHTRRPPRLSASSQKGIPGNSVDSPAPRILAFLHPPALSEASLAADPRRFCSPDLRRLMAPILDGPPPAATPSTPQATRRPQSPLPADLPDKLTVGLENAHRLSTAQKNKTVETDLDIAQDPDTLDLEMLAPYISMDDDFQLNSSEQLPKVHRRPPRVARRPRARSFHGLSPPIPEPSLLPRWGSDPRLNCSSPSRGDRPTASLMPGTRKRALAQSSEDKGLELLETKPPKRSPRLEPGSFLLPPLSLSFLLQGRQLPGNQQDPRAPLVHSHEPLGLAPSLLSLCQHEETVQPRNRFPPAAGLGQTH

Results are given in words; binding and its absence hold for the method and conditions named. For some assays here: In cells and extracts the contact can be indirect. Some entries that bind do so weakly or less than the wild type.

The target of experiment [1] is AH receptor nuclear translocator (ARNT), full length (human) (UniProt P27540). The experiment can be described thus: co-IP (discussion).
Experiment [2] has the same target. The experiment can be described thus: co-IP of 35S-labelled in vitro translated protein with ARNT-specific antiserum.
In the next experiment the target is MOP3 (human) (UniProt O00327). The experiment can be described thus: assay not described.
Experiment [3] has as its target LexAMOP2 (human). The experiment can be described thus: yeast interaction trap (mating), X-Gal overlay.
In experiment [4] the target is LexAMOP1 (human). The experiment can be described thus: yeast interaction trap (mating), X-Gal overlay.
Experiment [5] has as its target human aryl hydrocarbon receptor (AHR), full length (human) (UniProt P35869). The experiment can be described thus: co-IP of 35S-labelled in vitro translated protein with AHR-specific antiserum.
In experiment [6] the target is LexAMOP2 (human). The experiment can be described thus: yeast interaction trap (discussion).
In experiment [7] the target is LexAMOP1 (human). The experiment can be described thus: yeast interaction trap (discussion).

“human aryl hydrocarbon receptor (AHR), full length (from UniProt P35869 1-848)”: the binding result in experiment [1] and in experiment [2] was “binds” throughout.

Consider mouse MOP7 (from UniProt Q0VBL6 1-662), for which, in the experiment with MOP3 (human), the binding result was “binds”.

“AH receptor nuclear translocator (ARNT), full length (from UniProt P27540 1-789)”: the binding result (with LexAMOP2 (human) [3]; with LexAMOP1 (human) [4]; in experiment [5]; with LexAMOP2 (human) [6]; in the experiment with LexAMOP1 (human) [7]) was “binds” in each case.
